Results reported in PubChem BioAssay AID248 (DTP/NCI, 2004).
The list shows only some results of the screen, not a fair sample: it is rich in T/C values a quarter to a half above the control, in often repeated tests (any T/C) and in doses without a T/C. Further doses and runs are listed elsewhere. T/C: endpoint of the treated group in % of that of the vehicle group. Some doses have a count of surviving animals in place of a T/C: the source holds a T/C of zero for them, seemingly a mark for toxic or unscored doses. Some survivor counts are full or nearly so, which does not show that the dose was tolerated: the source hardly ever lists a survival T/C far under the control, and the zero likely stands for such cases as well. Counts of survivors are from the toxicity check (mostly the fifth day) where no day follows; animals may have died later. Schedules are NCI's codes, read here as Q, the interval in days (D) or hours (H), X, the number of doses. Some schedule codes hold Z or #, which are not explained here. Counts like (3×) say how often a value occurs here. Where survival is the endpoint, the PubChem record calls one and a half times the control and up active, and a quarter to a half above the control has no call in these data; cut-offs in other NCI protocols can differ.

Test system: L1210 leukemia ip in BDF1 mice, survival T/C
Experiment: NCI In Vivo Anticancer Drug Screen. Data for tumor model L1210 Leukemia (intraperitoneal) in B6D2F1 (BDF1) mice
Details: T/C endpoint: mean survival time, higher T/C = longer survival
[1] = dose: 100.0 mg/kg/injection, schedule: Q01DX001 (ip), vehicle: carboxymethylcellulose (CMC)
[2] = dose: 200.0 mg/kg/injection, schedule: Q01DX001 (ip), vehicle: carboxymethylcellulose (CMC)
[3] = dose: 400.0 mg/kg/injection, schedule: Q01DX001 (ip), vehicle: carboxymethylcellulose (CMC)
[4] = dose: 400.0 mg/kg/injection, schedule: Q01DX009 (ip), vehicle: Klucel (hydroxypropylcellulose) (HPC)
[5] = dose: 200.0 mg/kg/injection, schedule: Q04DX003 (ip), vehicle: Klucel (hydroxypropylcellulose) (HPC)
[6] = dose: 400.0 mg/kg/injection, schedule: Q04DX003 (ip), vehicle: Klucel (hydroxypropylcellulose) (HPC)
[7] = dose: 400.0 mg/kg/injection, schedule: Q04DX003 (ip), vehicle: saline with Tween-80
[8] = dose: 400.0 mg/kg/injection, schedule: Q04DX003 (ip), vehicle: saline
[9] = dose: 200.0 mg/kg/injection, schedule: Q01DX009 (ip), vehicle: Klucel (hydroxypropylcellulose) (HPC)
[10] = dose: 100.0 mg/kg/injection, schedule: Q04DX003 (ip), vehicle: saline
[11] = dose: 200.0 mg/kg/injection, schedule: Q01DX009 (ip), vehicle: saline with Tween-80

With `Cn1c(CCl)nc2c1c(=O)[nH]c(=O)n2C` the survivor count (dose: 200.0 mg/kg/injection, schedule: Q01DX001 (ip), vehicle: other) was 0 of 4 and the survivor count (dose: 400.0 mg/kg/injection, schedule: Q01DX001 (ip), vehicle: other) was 0 of 4.
For `C1=Cc2c3c(c4c(c2C1)C=CC4)CC=C3`, the survivor count (dose: 100.0 mg/kg/injection, schedule: Q01DX001 (ip), vehicle: Klucel (hydroxypropylcellulose) (HPC)) was 6 of 6.
`CC(=O)CC(=O)Nc1ccc(Cl)cc1` was tested, and the T/C (dose: 400.0 mg/kg/injection, schedule: Q04DX002 (ip), vehicle: Klucel (hydroxypropylcellulose) (HPC)) was 133 % of control.
For `C[N+](C)(CC(=O)Nc1cc(C(F)(F)F)cc(C(F)(F)F)c1)CC(=O)Nc1ccc(Cl)c(C(F)(F)F)c1`, the survivor count (dose: 50.0 mg/kg/injection, schedule: Q04DX002 (ip), vehicle: saline with Tween-80) was 1 of 3 and the survivor count (dose: 100.0 mg/kg/injection, schedule: Q04DX002 (ip), vehicle: saline with Tween-80) was 0 of 3.
`OC(CCN1CCOCC1)c1cc2ccccc2o1` (centres undefined) was tested, and the survivor count (dose: 300.0 mg/kg/injection, schedule: Q04DX003 (ip), vehicle: saline with Tween-80) was 1 of 6.
In the case of `CCC1(CC2CCCN(C)C2)c2ccccc2Sc2ccccc21` (centres undefined), the survivor count (dose: 128.0 mg/kg/injection, schedule: Q01DX015 (ip), vehicle: carboxymethylcellulose (CMC)) is reported as 0 of 6 and the survivor count (dose: 256.0 mg/kg/injection, schedule: Q01DX015 (ip), vehicle: carboxymethylcellulose (CMC)) is reported as 0 of 6.
With `c1cc(OCCN2CC2)ccn1` the survivor count (dose: 50.0 mg/kg/injection, schedule: Q01DX001 (ip), vehicle: carboxymethylcellulose (CMC)) was 3 of 6, the survivor count [1] was 0 of 6 and the survivor count [2] was 0 of 6. For the same compound, the survivor count [3] was 0 of 6.
With `COc1cc(C=Nc2ccc(Oc3ccc(Cl)cc3)cc2)cc(OC)c1OC` the survivor count [4] was 5 of 6.
With `CC(C)=CCC(/C=N/N=C(N)N)C(C)C` (centres undefined) the survivor count (dose: 15.0 mg/kg/injection, schedule: Q01DX Z (ip), vehicle: saline) was 6 of 6, the survivor count (dose: 30.0 mg/kg/injection, schedule: Q01DX Z (ip), vehicle: saline) was 5 of 6 and the survivor count (dose: 60.0 mg/kg/injection, schedule: Q01DX Z (ip), vehicle: saline) was 0 of 6. For the same compound, the survivor count (dose: 120.0 mg/kg/injection, schedule: Q01DX Z (ip), vehicle: saline) was 0 of 6 and the survivor count (dose: 120.0 mg/kg/injection, schedule: Q01DX Z (oral), vehicle: saline) was 3 of 6.
With `FC(F)(F)C(c1ccc(Cl)cc1)c1ccc(Cl)cc1` the survivor count (dose: 200.0 mg/kg/injection, schedule: Q01DX009 (ip), vehicle: other) was 6 of 6 and the survivor count (dose: 400.0 mg/kg/injection, schedule: Q01DX009 (ip), vehicle: other) was 3 of 6.
In the case of `O=C(NCCN1CC1)C(=O)NCCN1CC1`, the T/C (dose: 0.7 mg/kg/injection, schedule: Q04DX003 (ip), vehicle: Klucel (hydroxypropylcellulose) (HPC)) is reported as 128 % of control, the T/C (dose: 1.1 mg/kg/injection, schedule: Q04DX003 (ip), vehicle: Klucel (hydroxypropylcellulose) (HPC)) is reported as 138 % of control and the T/C (dose: 1.56 mg/kg/injection, schedule: Q04DX003 (ip), vehicle: saline with Tween-80) is reported as 129 % of control. For the same compound, the T/C (dose: 6.25 mg/kg/injection, schedule: Q04DX003 (ip), vehicle: saline with Tween-80) was 148 % of control, the T/C (dose: 9.0 mg/kg/injection, schedule: Q04DX003 (ip), vehicle: Klucel (hydroxypropylcellulose) (HPC)) was 134 % of control and the survivor count (dose: 12.5 mg/kg/injection, schedule: Q04DX003 (ip), vehicle: saline with Tween-80) was 4 of 6. The survivor count (dose: 25.0 mg/kg/injection, schedule: Q04DX003 (ip), vehicle: saline with Tween-80) was 1 of 6, the survivor count (dose: 100.0 mg/kg/injection, schedule: Q04DX003 (ip), vehicle: Klucel (hydroxypropylcellulose) (HPC)) was 0 of 6 and the survivor count [5] was 0 of 6. The survivor count [6] was 0 of 6.
`CCC(C)(O)C#CC#CC(C)(O)CC` (centres undefined) was tested, and the survivor count (dose: 100.0 mg/kg/injection, schedule: Q04DX003 (ip), vehicle: saline with Tween-80) was 3 of 3, the survivor count (dose: 200.0 mg/kg/injection, schedule: Q04DX003 (ip), vehicle: saline with Tween-80) was 2 of 3 and the survivor count [7] was 0 of 3.
`CC(NC(=O)c1ccccc1)C(=O)NC(CSC(c1ccccc1)c1ccccc1)C(=O)O` (centres undefined) was tested, and the survivor count (dose: 200.0 mg/kg/injection, schedule: Q01DX009 (ip), vehicle: saline) was 0 of 6, the survivor count (dose: 400.0 mg/kg/injection, schedule: Q01DX009 (ip), vehicle: saline) was 4 of 6 and the survivor count [8] was 3 of 6.
For `Clc1sc2ccccc2c1Cl`, the survivor count [9] was 0 of 6.
With `O=C1C(=O)c2ccccc2C(O)=C1c1ccccc1` the survivor count [1] was 1 of 4, the survivor count [2] was 0 of 4 and the survivor count [3] was 0 of 4.
In the case of `C/C=C(\CC)C(=O)O.[Pb]`, the survivor count (dose: 200.0 mg/kg/injection, schedule: Q04DX002 (ip), vehicle: saline with Tween-80) is reported as 0 of 3.
In the case of `Cc1cc(=O)[nH]c(N/N=C2/CCCCC2C)n1` (centres undefined), the survivor count [6] is reported as 2 of 6.
`O=C(/C=C/c1ccccc1)NC(=S)Nc1cc(C(F)(F)F)ccc1Cl` was tested, and the survivor count [7] was 6 of 6.
`Cc1ccccc1NC1=C(Cl)C(=O)c2ccccc2C1=O` was tested, and the survivor count [10] was 3 of 6, the survivor count (dose: 200.0 mg/kg/injection, schedule: Q01DX001 (ip), vehicle: saline) was 1 of 6 and the survivor count (dose: 400.0 mg/kg/injection, schedule: Q01DX001 (ip), vehicle: saline) was 2 of 6.
With `CS(=O)(=O)SCc1ccc([N+](=O)[O-])cc1` the survivor count (dose: 75.0 mg/kg/injection, schedule: Q01DX001 (ip), vehicle: carboxymethylcellulose (CMC)) was 4 of 6, the survivor count (dose: 150.0 mg/kg/injection, schedule: Q01DX001 (ip), vehicle: carboxymethylcellulose (CMC)) was 0 of 6 and the survivor count (dose: 300.0 mg/kg/injection, schedule: Q01DX001 (ip), vehicle: carboxymethylcellulose (CMC)) was 1 of 6.
With `Cc1ccc(NC(=O)Oc2ccc(-c3ccccc3)cc2)cc1NC(=O)Oc1ccc(-c2ccccc2)cc1` the survivor count [11] was 6 of 6.
`NC(=O)CCl` was tested, and the survivor count [5] was 0 of 6 and the survivor count [6] was 0 of 6.
With `O=C(C[n+]1ccc2ccccc2c1)c1ccccc1` the survivor count (dose: 12.5 mg/kg/injection, schedule: Q04DX003 (ip), vehicle: saline) was 0 of 6, the survivor count (dose: 25.0 mg/kg/injection, schedule: Q04DX003 (ip), vehicle: saline) was 0 of 6 and the survivor count [10] was 0 of 6. For the same compound, the survivor count (dose: 200.0 mg/kg/injection, schedule: Q04DX003 (ip), vehicle: saline) was 0 of 6 and the survivor count [8] was 0 of 6.
`CCN(CC)CCC(=O)Nc1cccc2c1C(=O)c1c(c(O)c3ccccc3c1O)C2=O` was tested, and the survivor count [11] was 6 of 6 and the survivor count [7] was 3 of 6.
In the case of `CCSc1ccc2c(cc1=O)C(NC(=O)NC)CCc1cc(OC)c(OC)c(OC)c1-2` (centres undefined), the survivor count (dose: 100.0 mg/kg/injection, schedule: Q01DX009 (ip), vehicle: Klucel (hydroxypropylcellulose) (HPC)) is reported as 5 of 6, the survivor count [9] is reported as 2 of 6 and the survivor count [4] is reported as 0 of 6.
In the case of `CCN1C(=O)C(Cl)=C(Cl)C1=O`, the survivor count (dose: 12.5 mg/kg/injection, schedule: Q01DX009 (ip), vehicle: saline with Tween-80) is reported as 0 of 6, the survivor count (dose: 25.0 mg/kg/injection, schedule: Q01DX009 (ip), vehicle: saline with Tween-80) is reported as 0 of 6 (2×) and the survivor count (dose: 50.0 mg/kg/injection, schedule: Q01DX009 (ip), vehicle: saline with Tween-80) is reported as 0 of 6. The survivor count (dose: 100.0 mg/kg/injection, schedule: Q01DX009 (ip), vehicle: saline with Tween-80) was 0 of 6 (2×), the survivor count [11] was 0 of 6 and the survivor count (dose: 400.0 mg/kg/injection, schedule: Q01DX009 (ip), vehicle: saline with Tween-80) was 0 of 6.
